# The list does not hold the whole screen: it gathers tests that were run many times, whatever their T/C, doses with no T/C, and many T/C values between a quarter and a half above the control. Other doses and runs of a compound stand elsewhere. T/C gives the treated animals as a percentage of the vehicle group. Some doses have a count of surviving animals in place of a T/C: the source files T/C as zero there, which appears to mark a toxic dose or a test without result, not a measured value. Some doses without a T/C left all or most animals alive at the check, yet need not have been tolerated: survival well below the control is almost never listed, so the zero probably covers shortened survival too. Survivors were counted at the toxicity check, usually on the fifth day, unless a day is given; later deaths do not show. Schedule codes are those of the source, taken here to give the interval after Q, in days (D) or hours (H), and the number of doses after X. Some doses were run more than once; their values stand side by side, smallest first. Some schedule codes hold Z or #, which are not explained here. Where survival is the endpoint, the PubChem record calls one and a half times the control and up active, and a quarter to a half above the control has no call in these data; cut-offs in other NCI protocols can differ. Some T/C values carry the count of animals alive at the toxicity check (mostly the fifth day); without a count, all were alive then.
# Tested on: L1210 leukemia ip in BDF1 mice, survival T/C
# Experiment: NCI In Vivo Anticancer Drug Screen. Data for tumor model L1210 Leukemia (intraperitoneal) in B6D2F1 (BDF1) mice
# Conditions: T/C endpoint: mean survival time, higher T/C = longer survival
# [1] = dose: 100.0 mg/kg/injection, schedule: Q01DX001 (ip), vehicle: carboxymethylcellulose (CMC)
# [2] = dose: 400.0 mg/kg/injection, schedule: Q01DX001 (ip), vehicle: Klucel (hydroxypropylcellulose) (HPC)
# [3] = dose: 50.0 mg/kg/injection, schedule: Q04DX002 (ip), vehicle: Klucel (hydroxypropylcellulose) (HPC)
# [4] = dose: 400.0 mg/kg/injection, schedule: Q01DX009 (ip), vehicle: Klucel (hydroxypropylcellulose) (HPC)
# [5] = dose: 200.0 mg/kg/injection, schedule: Q01DX009 (ip), vehicle: saline
# [6] = dose: 400.0 mg/kg/injection, schedule: Q01DX009 (ip), vehicle: saline
# [7] = dose: 400.0 mg/kg/injection, schedule: Q01DX001 (ip), vehicle: saline
# [8] = dose: 200.0 mg/kg/injection, schedule: Q01DX009 (ip), vehicle: Klucel (hydroxypropylcellulose) (HPC)
# [9] = dose: 100.0 mg/kg/injection, schedule: Q01DX009 (ip), vehicle: saline
# [10] = dose: 50.0 mg/kg/injection, schedule: Q01DX009 (ip), vehicle: Klucel (hydroxypropylcellulose) (HPC)
# [11] = dose: 200.0 mg/kg/injection, schedule: Q04DX003 (ip), vehicle: saline
# [12] = dose: 400.0 mg/kg/injection, schedule: Q04DX003 (ip), vehicle: saline
compound,measurement,setting,value
CN(Cc1ccc2nc(N)nc(N)c2c1)c1ccc(C(=O)NC(CCC(=O)O)C(=O)O)cc1 (stereo not drawn),T/C,"dose: 0.25 mg/kg/injection, schedule: Q01DX009 (ip), vehicle: other",141 % of control
same,survivor count,"dose: 3.6 mg/kg/injection, schedule: Q01DX009 (ip), vehicle: other",6 of 6
same,T/C,"dose: 4.4 mg/kg/injection, schedule: Q01DX001 (ip), vehicle: other",125 % of control
same,survivor count,"dose: 6.0 mg/kg/injection, schedule: Q01DX009 (ip), vehicle: other",6 of 6
same,T/C,"dose: 10.0 mg/kg/injection, schedule: Q01DX001 (ip), vehicle: other",144 % of control
same,T/C,"dose: 10.0 mg/kg/injection, schedule: Q01DX001 (ip), vehicle: saline",125 % of control
same,survivor count,"dose: 10.0 mg/kg/injection, schedule: Q01DX009 (ip), vehicle: other",6 of 6
same,survivor count,"dose: 10.0 mg/kg/injection, schedule: Q01DX009 (ip), vehicle: saline",6 of 6
same,T/C,"dose: 15.0 mg/kg/injection, schedule: Q01DX001 (ip), vehicle: saline",137 % of control
same,T/C,"dose: 20.0 mg/kg/injection, schedule: Q01DX001 (ip), vehicle: other",137 % of control
same,T/C,"dose: 22.0 mg/kg/injection, schedule: Q01DX001 (ip), vehicle: saline",137 % of control
same,survivor count,"dose: 40.0 mg/kg/injection, schedule: Q01DX001 (ip), vehicle: other",0 of 6
same,survivor count,"dose: 80.0 mg/kg/injection, schedule: Q01DX001 (ip), vehicle: other",0 of 6
same,survivor count,"dose: 100.0 mg/kg/injection, schedule: Q01DX001 (ip), vehicle: other",3 of 6
same,survivor count,"dose: 200.0 mg/kg/injection, schedule: Q01DX001 (ip), vehicle: other",1 of 6
same,survivor count,"dose: 400.0 mg/kg/injection, schedule: Q01DX001 (ip), vehicle: other",4 of 6
CC1=CCC2C(=O)C=CC(=O)C2C1 (stereo not drawn),survivor count,"dose: 40.0 mg/kg/injection, schedule: Q01DX009 (ip), vehicle: Klucel (hydroxypropylcellulose) (HPC)",0 of 6
same,survivor count,[1],1 of 4
same,survivor count,"dose: 200.0 mg/kg/injection, schedule: Q01DX001 (ip), vehicle: carboxymethylcellulose (CMC)",1 of 4
same,survivor count,"dose: 400.0 mg/kg/injection, schedule: Q01DX001 (ip), vehicle: carboxymethylcellulose (CMC)",1 of 4
CNC(=O)c1cnc(SC)nc1N,survivor count,[2],0 of 6
CC(=O)[O][Pb]([CH2]C(C)C)([CH2]C(C)C)[CH2]C(C)C,survivor count,"dose: 12.5 mg/kg/injection, schedule: Q01DX009 (ip), vehicle: Klucel (hydroxypropylcellulose) (HPC)",2 of 3
same,survivor count,"dose: 25.0 mg/kg/injection, schedule: Q01DX009 (ip), vehicle: Klucel (hydroxypropylcellulose) (HPC)",0 of 3
same,survivor count,"dose: 25.0 mg/kg/injection, schedule: Q04DX002 (ip), vehicle: Klucel (hydroxypropylcellulose) (HPC)",1 of 3
same,survivor count,[3],0 of 3
same,survivor count,"dose: 100.0 mg/kg/injection, schedule: Q01DX001 (ip), vehicle: Klucel (hydroxypropylcellulose) (HPC)",0 of 6
same,survivor count,"dose: 200.0 mg/kg/injection, schedule: Q01DX001 (ip), vehicle: Klucel (hydroxypropylcellulose) (HPC)",0 of 6
same,survivor count,[2],0 of 6
O=C(O)c1cccc(-c2ccccc2)c1,survivor count,"dose: 100.0 mg/kg/injection, schedule: Q04DX003 (ip), vehicle: saline with Tween-80",6 of 6
same,survivor count,"dose: 400.0 mg/kg/injection, schedule: Q04DX003 (ip), vehicle: saline with Tween-80",4 of 6
CCOC(=O)c1ccc(NC(=O)Nc2ccc(F)cc2)cc1,survivor count,[4],1 of 6
Cc1c2oc3c(C)ccc(C(=O)NC4C(=O)NC(C(C)C)C(=O)N5CCCC5C(=O)N(C)CC(=O)N(C)C(C(C)C)C(=O)OC4C)c3nc-2c(C(=O)NC2C(=O)NC(C(C)C)C(=O)N3CCCC3C(=O)N(C)CC(=O)N(C)C(C(C)C)C(=O)OC2C)c(N)c1=O (stereo not drawn),T/C,"dose: 0.6 mg/kg/injection, schedule: Q04DX003 (ip), vehicle: water",129 and 136 % of control [5 of 6 alive]
same,T/C,"dose: 0.9 mg/kg/injection, schedule: Q04DX003 (ip), vehicle: water",129 % of control
same,T/C,"dose: 1.2 mg/kg/injection, schedule: Q04DX003 (ip), vehicle: water",127 % of control
same,survivor count,"dose: 2.4 mg/kg/injection, schedule: Q04DX003 (ip), vehicle: water",6 of 6
same,survivor count,"dose: 4.8 mg/kg/injection, schedule: Q04DX003 (ip), vehicle: water",0 of 6
same,survivor count,"dose: 6.0 mg/kg/injection, schedule: Q04DX003 (ip), vehicle: water",0 of 6
same,survivor count,"dose: 9.0 mg/kg/injection, schedule: Q04DX003 (ip), vehicle: water",0 of 6
Oc1ccc(-c2cc(O)c(-c3ccc(O)cc3)cc2O)cc1,survivor count,[5],3 of 6
same,survivor count,[6],0 of 6
N#CC1CN(c2ccccc2)CC1=O (stereo not drawn),survivor count,[4],3 of 6
O=c1cc[nH]c2c([N+](=O)[O-])cccc12,survivor count,[7],0 of 6
CC(C)(C)C1CCC(N=C(N)CCl)CC1 (stereo not drawn),survivor count,[3],1 of 3
same,survivor count,"dose: 100.0 mg/kg/injection, schedule: Q04DX002 (ip), vehicle: Klucel (hydroxypropylcellulose) (HPC)",2 of 3
same,survivor count,"dose: 200.0 mg/kg/injection, schedule: Q04DX002 (ip), vehicle: Klucel (hydroxypropylcellulose) (HPC)",0 of 3
same,survivor count,"dose: 400.0 mg/kg/injection, schedule: Q04DX002 (ip), vehicle: Klucel (hydroxypropylcellulose) (HPC)",0 of 3
[O-][n+]1ccc(CC(O)(C(F)(F)F)C(F)(F)F)cc1,survivor count,[8],1 of 6
same,survivor count,[4],0 of 6
CCCCCOC(=O)CCCc1ccc(N(CCCl)CCCl)cc1,T/C,"dose: 25.0 mg/kg/injection, schedule: Q01DX009 (ip), vehicle: saline",131 and 139 % of control
same,T/C,"dose: 50.0 mg/kg/injection, schedule: Q01DX009 (ip), vehicle: saline",127 % of control
same,survivor count,[9],4 of 6 and 7 of 10
same,survivor count,[5],2 of 6
same,survivor count,[6],0 of 6
Cc1c2c(cc3c1OCN(C)C3)CN(C)CO2,survivor count,[7],1 of 4
CN(N=O)C(=O)NN(C)C(=O)N(C)N=O,T/C,[1],125 % of control
same,survivor count,"dose: 500.0 mg/kg/injection, schedule: Q01DX001 (ip), vehicle: carboxymethylcellulose (CMC)",0 of 6
same,survivor count,"dose: 600.0 mg/kg/injection, schedule: Q01DX001 (ip), vehicle: carboxymethylcellulose (CMC)",3 of 6
same,survivor count,"dose: 800.0 mg/kg/injection, schedule: Q01DX001 (ip), vehicle: carboxymethylcellulose (CMC)",0 of 6
same,survivor count,"dose: 1000.0 mg/kg/injection, schedule: Q01DX001 (ip), vehicle: carboxymethylcellulose (CMC)",0 of 6
CN(C)c1ncnc2c1ncn2C1OC(CO)C(N)C1O (stereo not drawn),T/C,[10],131 % of control
same,survivor count,"dose: 100.0 mg/kg/injection, schedule: Q01DX009 (ip), vehicle: Klucel (hydroxypropylcellulose) (HPC)",6 of 6
same,survivor count,[8],4 of 6
CC(=O)OCCOc1ccc(C(C)(C)C)cc1,survivor count,[10],3 of 3
same,survivor count,[8],3 of 3
N=c1ccc2nc3ccc(N)cc3sc-2c1,survivor count,[9],0 of 6
same,survivor count,[11],1 of 6
same,survivor count,[12],0 of 6
Cc1cc(N(C)C)nc(SCc2ccc(F)cc2)n1,survivor count,"dose: 100.0 mg/kg/injection, schedule: Q01DX Z (ip), vehicle: methylcellulose (MC)",5 of 6
CCOC(=O)N(Cl)Cl,survivor count,"dose: 100.0 mg/kg/injection, schedule: Q04DX003 (ip), vehicle: saline",0 of 6
same,survivor count,[11],0 of 6
same,survivor count,[12],0 of 6
O=C(Sc1ccccc1)C1OC1(c1ccccc1)c1ccccc1 (stereo not drawn),survivor count,"dose: 400.0 mg/kg/injection, schedule: Q04DX003 (ip), vehicle: Klucel (hydroxypropylcellulose) (HPC)",5 of 6
CC(C)CP(=O)(CC(C)C)C1CCCC1,survivor count,"dose: 400.0 mg/kg/injection, schedule: Q01DX001 (ip), vehicle: saline with Tween-80",1 of 6

# From PubChem BioAssay AID248 (DTP/NCI, 2004)
